Measured values published in PubChem BioAssay AID638 (SRMLSC, 2007).
The whole screen tested about 1,300 compounds, of which about 65 (5%) were called active.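 The calls were made as follows: active = growth inhibition reaching a set limit at one or more tested doses; inactive = the rest.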 Some of the results follow. Measured potencies and affinities stand elsewhere.

Assay: growth inhibition of wild-type E. coli, dose response, BW25113 wild type, OD615 (AID 638)
Settings: at 100 µM (top of the series) unless noted
Method in brief: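 Assay system: E. coli BW25113 wild type. Doses: compound concentration series. Timing: 20 h compound exposure, 37 °C. Technique: OD615 absorbance. Medium: LB broth containing kanamycin at 50 µg/mL. Benchmarks: chloramphenicol at 30 µM final as inhibition control. Measure: IC50 from 4-parameter logistic, bounds fixed 0–100%.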

Growth inhibition, inactive:
c1ccc(-n2nnnc2Oc2cccc3cccnc23)cc1 2.63%, Cc1nn(-c2nc3ccccc3n2Cc2ccccc2)c2c1C(=O)CC(C)(C)C2 -12.2%, N#Cc1cn(CCOc2ccccc2F)c2ccccc12 -0.93%, O=C(Nc1nnc(-c2cccs2)o1)c1cccc(Oc2ccccc2)c1 12.7%, Cc1cccc(-n2ncc3c(N4CC(C)CC(C)C4)ncnc32)c1 (configuration not stated) -9.68%, c1coc(CN(Cc2cccs2)Cc2nnnn2C2CCCCC2)c1 2.37%, CC1=C(C(=O)OC2CCCC2)C(c2ccc(C)o2)C2=C(CC(c3cccs3)CC2=O)N1 (configuration not stated) -3.96%, COc1cc2cc(C(c3nnnn3C3CCCCC3)N(C)C3CCCCC3)c(=O)[nH]c2cc1OC (configuration not stated) 0.95%, COc1ccc2nc(NC(=O)C3CCCN(S(=O)(=O)c4cccs4)C3)sc2c1 (configuration not stated) -21.6%, COc1ccc(CN(C(=O)CN2C(=O)COc3ccccc32)C2CCCC2)c(OC)c1 0.37%, CCCc1nc(SCC(=O)N2CCC(Cc3ccccc3)CC2)c2c(=O)n(C)c(=O)n(C)c2n1 -7.24%, CCCCn1c(N2CCC(Cc3ccccc3)CC2)nc2c1c(=O)[nH]c(=O)n2C -1.49%, CC(C)n1c2ccccc2c2nc3ccccc3nc21 -6.19%, O=C(CSc1nnnn1C1CCCCC1)Nc1nc2c(s1)CCCC2 5.16%, Cc1ccc(Cn2c(SCC(C)C)nc3c2c(=O)n(C)c(=O)n3C)cc1 10.5%, CCn1c(N2CCN(C(=O)C34CC5CC(CC(C5)C3)C4)CC2)nc2ccccc21 9.4%, O=S(=O)(NCCSc1ccc(Cl)cc1)c1ccc2c(c1)OCCO2 -0.01%, CC1CCN(S(=O)(=O)c2ccc(Cl)cc2Br)CC1 15.1%, Cc1nn(-c2ccc(F)cc2)c2sc(C(=O)N3CCCCCC3)cc12 -8.97%, Cc1nn(-c2ccccc2)c2sc(C(=O)N(CC(=O)NC(C)(C)C)Cc3ccco3)cc12 -9.04%, CCCCCC(=O)Nc1ccccc1N1CCN(c2ccccc2)CC1 1.05%, O=C1CC(O)(C(F)(F)F)Oc2c1ccc1ccccc21 (configuration not stated) 16.7% [at 50 µM], Cc1cc(N2C3CCC2CC(O)(c2ccc(F)cc2)C3)nc(-c2ccccc2)n1 (configuration not stated) -4.92%, Cc1ccc(NC(=O)CN(C)S(=O)(=O)c2cccc3nsnc23)cc1Cl -4.22%, O=C(Nc1ncc(Br)s1)C(Cc1ccccc1)n1cccc1 (configuration not stated) 9.71%, CCc1c(O)nc(SCC(=O)Nc2ccc(C)cc2)n(C2CCCCC2)c1=O -10.1%, CCOC(=O)c1cnc(-n2nc(C)cc2C)nc1NC1CCCCC1 -4.22%, CC(C)(C)OC(=O)N1CCC[C@H]1c1nnc(SCc2ccc(Cl)cc2Cl)o1 13.3%, Cc1cc(C2N=C(N)Nc3nc4ccccc4n32)c(C)n1-c1ccccc1Cl (configuration not stated) 1.25%, Cc1cc(C)c(C#N)c(SCc2ccc3c(c2)OCO3)n1 -0.93%, Brc1ccc(-c2nc(-c3ccccc3)no2)o1 11.2%, CCOC(=O)c1sc(NC(=O)c2c(C)nn(Cc3ccccc3)c2C)cc1C 6.06%, CSc1ccc(S(=O)(=O)Nc2ccc(N3CCOCC3)c(Cl)c2)cc1 -2.97%, CCOC(=O)C1CCN(C(=O)c2oc3ccc(S(=O)(=O)N4CCCCCC4)cc3c2C)CC1 -8.04%, CC1(C)Cc2c(c(N3CCCC3)nc3sc4c(N5CCN(CCO)CC5)ncnc4c23)CO1 -8.86%, COc1ccc2nc3c(cc2c1)c(NC(=O)c1cccs1)nn3CC(C)C -6.34%, COC(=O)c1[nH]c2ccc(C)cc2c1NS(=O)(=O)c1ccc(F)cc1 -7.43%, Cc1cccc(Cn2c(=O)c3c(nc4n3CCCN4Cc3ccccc3)n(C)c2=O)c1 -5.94%, Cc1cccc(N2CC(c3nc4ccccc4n3C)CC2=O)c1C (configuration not stated) -1.12%, CCCc1nc2sc3ccccc3c(=O)c2c(=O)n1Cc1ccco1 -1.85%, CCc1c(O)nc(SCc2ccccc2)n(C(C)CC)c1=O (configuration not stated) -5.72%, CC1=CC(C)(C)N2C(=O)C3(SCC(=O)N3c3ccc(O)cc3)c3cc(C)cc1c32 (configuration not stated) 1.81%, COc1ccc(NC(=O)c2cc3c(=O)n(C)c4ccccc4c3n2C)cc1OC -10.6%, COc1cccc(-c2cc(C(=O)Nc3c(C)nn(Cc4ccccc4C)c3C)no2)c1 -2.6%, Cc1cc(=O)[nH]c(SCC(=O)Nc2nc(-c3ccccc3)cs2)n1 3.69%, O=S(=O)(Nc1nc2ccccc2nc1NCc1ccco1)c1ccccc1 -8.38%, O=C(CSc1nc2ccccc2o1)Nc1nc2c(s1)CCCC2 18.3%, CCCCCCOC(=O)C(C#N)c1nc2ccccc2nc1N1CCN(C)CC1 (configuration not stated) 12.3%, O=C(Cc1ccccc1)Nc1ccccc1N1CCN(c2ccccc2)CC1 -11.8%, Cc1cc(NC(=O)C2CCCCC2)nc2c1c(=O)oc1ccccc12 -14.4%, COc1ccccc1N1CCN(C(c2ccccc2Cl)c2nnnn2C(C)(C)C)CC1 (configuration not stated) 3.17%, O=C(CSc1ncc(-c2ccc(F)cc2)n1Cc1ccco1)Nc1ccc2c(c1)OCO2 -11.5%, CCn1c(=O)c2cc(C(=O)N3CCN(C(=O)c4ccco4)CC3)sc2c2ccccc21 0.55%, O=C(CSc1n[nH]c(-c2ccco2)n1)N1c2ccccc2Sc2ccccc21 4.38%, Cc1nc(N2CCN(Cc3ccc4c(c3)OCO4)CC2)c2oc3ccccc3c2n1 -14.2%, COc1ccccc1-c1nnc(SC/C(O)=C(\C#N)c2nc3ccccc3[nH]2)n1C1CCCCC1 -4.94%, COc1ccc(CNC(=O)c2cc(-c3ccccc3OC)on2)cc1 10.6%
